Test results published in a melting point compilation (Tetko et al.; mined from patent text by program, amines drawn as free bases though some values may be those of a salt).

Cc1ccc(C(=O)N[C@H]2CC[C@H](CCN3CCN(c4nccc5c4CCO5)CC3)CC2)cn1
melting point: 201 °C
